According to PubChem BioAssay AID540276 (National Center for Advancing Translational Sciences (NCATS), 2011):
Values joined by “and” are separate entries in the source; they are usually repeats but may differ in a detail not shown here. Equal values may be shown once. Out of some 300,000 compounds screened, about 5,400 (1.8%) were called active. The inconclusive results got no clear call from the source; some entries with a clear call stand among them for comparison. Calls come from the whole dose curve; tested in HEK293 cells. Where the call is inconclusive, the potency comes from a doubtful curve fit.

experiment: qHTS for inhibitors of binding or entry into cells for Marburg Virus; settings: Marburg virus pseudotyped entry inhibition, cell reporter; series mostly up to 37.8 µM
Potency is the fitted concentration of half-maximal effect.

Row | Compound | Potency
1 | CCCc1cc(=O)[nH]c(SCC(=O)c2c(N)n(CC(C)C)c(=O)n(C)c2=O)n1 | inconclusive: 10 µM [inhibitor, partial curve, poor fit]
2 | O=C(CC12CC3CC(CC(C3)C1)C2)NCc1ccncc1 | inactive
3 | CC(Sc1ccccc1)C(=O)N1CCN(S(=O)(=O)c2ccccc2C(F)(F)F)CC1 (stereo unspecified) | inactive
4 | Cc1ccc(S(=O)(=O)NC(=O)NCCc2ccccc2)cc1 | inactive
5 | CCC(=O)Nc1ccc(N2CCN(C(=O)c3ccccc3C)CC2)cc1 | inactive
6 | CCNC(=O)COc1ccc(/C=N/NC(=O)c2cccnc2)cc1OC | inactive
7 | COc1ccc(/C=C(/NC(=O)c2ccco2)C(=O)NCCc2ccccc2)cc1 | inconclusive: 35.5 µM [activator, single point]
8 | CCOc1ccccc1C(=O)N(Cc1cc(OC)c(OC)c(OC)c1)C1CCS(=O)(=O)C1 (stereo unspecified) | inactive
9 | Cc1cc(C(=O)COC(=O)CCc2nc3ccccc3s2)c(C)n1C | inconclusive: 23.1 µM [activator, partial curve, poor fit]
10 | CS(=O)(=O)N(CC(=O)N1CCc2ccccc2C1)c1ccc2c(c1)OCO2 | inactive
11 | Cc1ccccc1NC(=S)Nc1cccc2cnccc12 | inactive
12 | COc1ccccc1OCC(=O)NCC1CCCN(C(=O)c2ccccc2C(C)=O)C1 (stereo unspecified) | inactive
13 | CCCN(C(=O)c1cn(C)c(=O)c2ccccc12)c1ccccc1C | inconclusive: 35.5 µM [inhibitor, partial curve, poor fit]
14 | O=C(Nc1ccncc1)c1ccc(NS(=O)(=O)c2cccc(F)c2)cc1 | inconclusive: 12.6 µM [inhibitor, partial curve, poor fit]
15 | CCn1c(SCC(=O)N2CCCC2)nnc1-c1ccc(S(=O)(=O)N2CCCCCC2)cc1 | inconclusive: 13 µM [activator, partial curve, poor fit]
16 | CCOc1ccc(-n2nc3ccc(NC(=O)CC)cc3n2)cc1 | inactive
17 | COc1cc2c(cc1NC(=O)CSc1cccc[n+]1[O-])oc1ccccc12 | inactive
18 | COc1cc(OC)c(N(C)S(=O)(=O)c2cccc(C(=O)OCC(=O)N3CCOCC3)c2)cc1Cl | inconclusive: 0.501 µM [inhibitor, single point]
19 | COc1ccc(NC(=O)CN(C)CC(=O)Nc2ccc(Cl)cc2F)cc1 | inactive
20 | CCOc1ccc(N2CC(C(=O)Nc3ccc(F)cc3F)CC2=O)cc1 (stereo unspecified) | inconclusive: 5.62 µM [inhibitor, single point]
21 | Cc1coc2c(O)cc3c(c12)OC1(N2CCCCC2)C(=O)NCCCC31 (stereo unspecified) | inconclusive: 12.6 µM [inhibitor, partial curve, poor fit]
22 | Oc1ccc(Br)cc1C=Nc1ccc2c3c(cccc13)CC2 | inconclusive: 2 µM [activator, partial curve, poor fit]
23 | CCn1c(Cc2ccc(OC)cc2)nc2ccccc21 | inconclusive: 12.6 µM [inhibitor, partial curve, poor fit]

Row | Compound | Potency
24 | O=C(Nc1ccccc1C(=O)NC1CC1)c1ccc([N+](=O)[O-])o1 | inconclusive: 0.794 µM [inhibitor, partial curve, poor fit]
25 | O=C(Nc1cccc2ncccc12)c1ccc(F)cc1 | inactive
26 | COc1ccc(-c2csc(N(Cc3ccccc3)C(=O)COc3ccc(Cl)cc3)n2)cc1 | inactive
27 | O=C(O)c1cccc(N2C(=O)c3cccc4c(Cl)ccc(c34)C2=O)c1 | inconclusive: 35.5 µM [inhibitor, single point]
28 | CCN(CC)CCCNC(=O)c1ccc2nc(N3CCCCC3)sc2c1 | inconclusive: 0.794 µM [activator, full curve, poor fit]
29 | Nc1ccc2nc3c(=O)n(CCc4ccccc4)c(=O)[nH]c3nc2c1 | inconclusive: 2.82 µM [activator, partial curve, poor fit]
30 | O=C1C=C(O)c2[nH]c(=O)ccc2C1=O | inconclusive: 25.1 µM [activator, partial curve, poor fit]
31 | O=C(NCc1ccccn1)NC1CCCCC1 | inconclusive: 35.5 µM [activator, single point]
32 | O=C1c2ccccc2-c2onc3ccc(NCCCn4ccnc4)c1c23 | inconclusive: 11.6 µM [inhibitor, partial curve, poor fit]
33 | CN(c1ccccc1)S(=O)(=O)c1cccc(NC(=O)CSc2ncn[nH]2)c1 | inconclusive: 35.5 µM [inhibitor, single point]
34 | COC(=O)c1[nH]c2ccc(Br)cc2c1NC(=O)CN1CCCc2ccccc21 | inconclusive: 25.1 µM [inhibitor, single point]
35 | Cc1c(NC(=O)c2c(O)c3ccccc3n(C)c2=O)c(=O)n(-c2ccccc2)n1C | inconclusive: 5.62 µM [inhibitor, single point]
36 | COc1ccc(-c2nc(-c3ccccc3)oc2NC(C)c2ccccc2)cc1 (stereo unspecified) | inactive
37 | CCN1CCN(CCCNC(=O)c2cc3cc4ccc(OC)cc4nc3o2)CC1 | inconclusive: 28.2 µM [inhibitor, single point]
38 | CCNC(=O)C(=O)NCC1OCCCN1S(=O)(=O)c1ccc(F)cc1C (stereo unspecified) | inactive
39 | Cc1ccc(CCCOC(=O)C[N+]2(C)CCOCC2)cc1 | inconclusive: 35.5 µM [inhibitor, single point]
40 | O=C(OCc1ccc(COC(=O)c2ccccn2)cc1)c1ccccn1 | inactive
41 | O=C(O)c1ccn(COc2ccc(Br)cc2)n1 | inconclusive: 5.62 µM [activator, single point]
42 | C/C(=N/OC(=O)c1ccc(C)cc1)c1ccc(N2C(=O)C3CCCCC3C2=O)cc1 (stereo unspecified) | inactive
43 | CC(C)COc1ccc(C/C(N)=N/n2cnnc2)cc1 | active: 1 µM
44 | CC(C)(C)C(=O)O/N=C(\N)Cc1ccc(-c2csnn2)cc1 | active: 8.91 µM
45 | Cc1[nH]c2ccccc2c1/C=N/Nc1nc(Nc2ccc(F)cc2)nc(N2CCOCC2)n1 | inactive and inconclusive: 1.26 µM [inhibitor, full curve, poor fit]
46 | O=C(N/N=C/c1ccc2ncccc2c1)c1ccco1 | active: 1.26 µM

Gathered by group: the compounds so far containing a COOH group
Row | Compound | Potency
27 | O=C(O)c1cccc(N2C(=O)c3cccc4c(Cl)ccc(c34)C2=O)c1 | inconclusive: 35.5 µM [inhibitor, single point]
41 | O=C(O)c1ccn(COc2ccc(Br)cc2)n1 | inconclusive: 5.62 µM [activator, single point]
